# Measured values as given in US10633448B2 (PIERRE FABRE MEDICAMENT, priority 2014, dated 2020).
# Assay: general procedure: solution-phase peptide synthesis; DEPC/DIEA; HATU/DIEA
# Details: for conjugation yield: conjugation step
# [1] = late stage modification step, trifluoroacetic acid
# [2] = coupling step, trifluoroacetic acid
# [3] = late stage modification step, 210 nm, trifluoroacetic acid
# [4] = late stage modification step, 254 nm, trifluoroacetic acid
Substance,conjugation yield (trifluoroacetic acid) [%],step yield [1] [%],further results
"N—((S)-1-(((S)-1-((4-((3R,4S,7S,10S)-4-((S)-sec-butyl)-7,10-diisopropyl-3-(2-((S)-2-((1R,2R)-1-methoxy-2-methyl-3-oxo-3-(((S)-2-phenyl-1-(thiazol-2-yl)ethyl)amino)propyl)pyrrolidin-1-yl)-2-oxoethyl)-5,11-dimethyl-6,9-dioxo-2-oxa-5,8,11-triazatridecan-13-yl)phenyl)amino)-1-oxo-5-ureidopentan-2-yl)amino)-3-methyl-1-oxobutan-2-yl)-6-(2,5-dioxo-2,5-dihydro-1H-pyrrol-1-yl)hexanamide 2,2,2-trifluoroacetate",70,–,–
"((2R,3R)-3-((S)-1-((3R,4S,5S)-4-((S)-2-((S)-2-((4-aminophenethyl)(methyl)amino)-3-methylbutanamido)-N,3-dimethylbutanamido)-3-methoxy-5-methylheptanoyl)pyrrolidin-2-yl)-3-methoxy-2-methylpropanoyl)-L-phenylalanine 2,2,2-trifluoroacetate",–,66,–
"methyl (S)-2-((2R,3R)-3-((S)-1-((3R,4S,5S)-4-((S)-2-((((9H-fluoren-9-yl)methoxy)carbonyl)amino)-N,3-dimethylbutanamido)-3-methoxy-5-methylheptanoyl)pyrrolidin-2-yl)-3-methoxy-2-methyl propanamido)-3-phenylpropanoate",–,–,step yield [2]: 34%
"methyl ((2R,3R)-3-((S)-1-((3R,4S,5S)-4-((S)-2-((S)-2-((3-(6-(2,5-dioxo-2,5-dihydro-1H-pyrrol-1-yl)hexanamido)benzyl)(methyl)amino)-3-methylbutanamido)-N,3-dimethylbutanamido)-3-methoxy-5-methylheptanoyl)pyrrolidin-2-yl)-3-methoxy-2-methylpropanoyl)-L-phenylalaninate 2,2,2-trifluoroacetate",50,–,–
"methyl (S)-2-((2R,3R)-3-((S)-1-((3R,4S,5S)-4-((S)—N,3-dimethyl-2-((S)-3-methyl-2-(methyl(4-(methylamino)phenethyl)amino)butanamido)butanamido)-3-methoxy-5-methylheptanoyl)pyrrolidin-2-yl)-3-methoxy-2-methylpropanamido)-3-phenylpropanoate",–,–,"final HPLC purity (coupling step, 254 nm, trifluoroacetic acid): 90.6%; step yield (coupling step, two steps from 3D, trifluoroacetic acid): 7%"
"methyl ((2R,3R)-3-((S)-1-((3R,4S,5S)-4-((S)-2-((S)-2-((4-((S)-2-((S)-2-(6-(2,5-dioxo-2,5-dihydro-1H-pyrrol-1-yl)hexanamido)-3-methylbutanamido)-5-ureidopentanamido)phenethyl)(methyl)amino)-3-methylbutanamido)-N,3-dimethylbutanamido)-3-methoxy-5-methylheptanoyl)pyrrolidin-2-yl)-3-methoxy-2-methylpropanoyl)-L-phenylalaninate 2,2,2-trifluoroacetate",13,–,–
"(S)-2-((S)-2-(((2-aminopyridin-4-yl)methyl)(methyl)amino)-3-methylbutanamido)-N-((3R,4S,5S)-1-((S)-2-((1R,2R)-3-(((1S,2R)-1-hydroxy-1-phenylpropan-2-yl)amino)-1-methoxy-2-methyl-3-oxopropyl)pyrrolidin-1-yl)-3-methoxy-5-methyl-1-oxoheptan-4-yl)-N,3-dimethylbutanamide, trifluoroacetic acid",–,–,"final HPLC purity [3]: 99.2%; step yield (late stage modification step, TFA salt): 6%"
"((2R,3R)-3-((S)-1-((3R,4S,5S)-4-((S)-2-((S)-2-((4-((S)-2-((S)-2-(6-(2,5-dioxo-2,5-dihydro-1H-pyrrol-1-yl)hexanamido)-3-methylbutanamido)-N-methyl-5-ureidopentanamido)phenethyl)(methyl)amino)-3-methylbutanamido)-N,3-dimethylbutanamido)-3-methoxy-5-methylheptanoyl)pyrrolidin-2-yl)-3-methoxy-2-methylpropanoyl)-L-phenylalanine 2,2,2-trifluoroacetate",24,–,–
"methyl (S)-2-((2R,3R)-3-((S)-1-((3R,4S,5S)-4-((S)-2-((S)-2-((3-aminopropyl)(methyl)amino)-3-methylbutanamido)-N,3-dimethylbutanamido)-3-methoxy-5-methylheptanoyl)pyrrolidin-2-yl)-3-methoxy-2-methylpropanamido)-3-phenylpropanoate",–,–,"final HPLC purity (coupling step, 210 nm, trifluoroacetic acid): 91.5%; step yield (coupling step, over 2 steps from 3D, trifluoroacetic acid): 26%, yield in 2 steps"
"(S)-2-((S)-2-((3-aminopropyl)(methyl)amino)-3-methylbutanamido)-N-((3R,4S,5S)-3-methoxy-1-((S)-2-((1R,2R)-1-methoxy-2-methyl-3-oxo-3-(((S)-2-phenyl-1-(thiazol-2-yl)ethyl)amino)propyl)pyrrolidin-1-yl)-5-methyl-1-oxoheptan-4-yl)-N,3-dimethylbutanamide, bis trifluoroacetic acid",–,25,final HPLC purity [4]: 93.7%
"(S)—N-((3R,4S,5S)-3-methoxy-1-((S)-2-((1R,2R)-1-methoxy-2-methyl-3-oxo-3-(((S)-2-phenyl-1-(thiazol-2-yl)ethyl)amino)propyl)pyrrolidin-1-yl)-5-methyl-1-oxoheptan-4-yl)-N,3-dimethyl-2-((S)-3-methyl-2-(methyl(4-(methylamino)phenethyl)amino) butanamido)butanamide",–,39,final HPLC purity [4]: 93.68%
"methyl ((2R,3R)-3-((S)-1-((3R,4S,5S)-4-((S)-2-((S)-2-((4-((((4-((S)-2-((S)-2-(6-(2,5-dioxo-2,5-dihydro-1H-pyrrol-1-yl)hexanamido)-3-methylbutanamido)-5-ureidopentanamido)benzyl)oxy)carbonyl)(methyl)amino)phenethyl)(methyl)amino)-3-methylbutanamido)-N,3-dimethylbutanamido)-3-methoxy-5-methylheptanoyl)pyrrolidin-2-yl)-3-methoxy-2-methylpropanoyl)-L-phenylalaninate 2,2,2-trifluoroacetate",70,–,–
"(S)-2-((S)-2-((4-aminobenzyl)(methyl)amino)-3-methylbutanamido)-N-((3R,4S,5S)-3-methoxy-1-((S)-2-((1R,2R)-1-methoxy-2-methyl-3-oxo-3-(((S)-2-phenyl-1-(thiazol-2-yl)ethyl)amino)propyl)pyrrolidin-1-yl)-5-methyl-1-oxoheptan-4-yl)-N,3-dimethylbutanamide, trifluoroacetic acid",–,–,"crude purity (method not given) (late stage modification step, LC/MS/UV (Atlantis T3 column, 254 nm), trifluoroacetic acid): 93.2%"
"methyl (S)-2-((2R,3R)-3-((S)-1-((3R,4S,5S)-4-((S)-2-amino-N,3-dimethylbutanamido)-3-methoxy-5-methylheptanoyl)pyrrolidin-2-yl)-3-methoxy-2-methylpropanamido)-3-phenylpropanoate",–,81,–
"(S)-2-((2R,3R)-3-((S)-1-((3R,4S,5S)-4-((S)-2-((S)-2-((3-aminobenzyl)(methyl)amino)-3-methylbutanamido)-N,3-dimethylbutanamido)-3-methoxy-5-methylheptanoyl)pyrrolidin-2-yl)-3-methoxy-2-methylpropanamido)-3-phenylpropanoic acid",–,20,final HPLC purity [3]: 92.5%
"methyl (S)-2-((2R,3R)-3-((S)-1-((3R,4S,5S)-4-((S)-2-((S)-2-((3-aminobenzyl)(methyl)amino)-3-methylbutanamido)-N,3-dimethylbutanamido)-3-methoxy-5-methylheptanoyl)pyrrolidin-2-yl)-3-methoxy-2-methylpropanamido)-3-phenylpropanoate",–,19,final HPLC purity [3]: 91.1%
"4-((S)-2-((S)-2-(6-(2,5-dioxo-2,5-dihydro-1H-pyrrol-1-yl)hexanamido)-3-methylbutanamido)-5-ureidopentanamido)benzyl (4-((3R,4S,7S,10S)-4-((S)-sec-butyl)-7,10-diisopropyl-3-(2-((S)-2-((1R,2R)-1-methoxy-2-methyl-3-oxo-3-(((S)-2-phenyl-1-(thiazol-2-yl)ethyl)amino)propyl)pyrrolidin-1-yl)-2-oxoethyl)-5,11-dimethyl-6,9-dioxo-2-oxa-5,8,11-triazatridecan-13-yl)phenyl)(methyl)carbamate 2,2,2-trifluoroacetate",54,–,–
"(S)-2-((2R,3R)-3-((S)-1-((3R,4S,5S)-4-((S)-2-((S)-2-((3-aminopropyl)(methyl)amino)-3-methylbutanamido)-N,3-dimethylbutanamido)-3-methoxy-5-methylheptanoyl) pyrrolidin-2-yl)-3-methoxy-2-methylpropanamido)-3-phenylpropanoic acid",–,21,final HPLC purity [3]: 96.83%
"Methyl ((2R,3R)-3-((S)-1-((3R,4S,5S)-4-((S)-2-((S)-2-((4-aminophenethyl)(methyl)amino)-3-methylbutanamido)-N,3-dimethylbutanamido)-3-methoxy-5-methylheptanoyl)pyrrolidin-2-yl)-3-methoxy-2-methylpropanoyl)-L-phenylalaninate",–,–,"final HPLC purity (coupling step, 220 nm, trifluoroacetic acid): 95.3%; step yield [2]: 45%"
"((2R,3R)-3-((S)-1-((3R,4S,5S)-4-((S)-2-((S)-2-((4-(6-(2,5-dioxo-2,5-dihydro-1H-pyrrol-1-yl)-N-methylhexanamido)phenethyl)(methyl)amino)-3-methylbutanamido)-N,3-dimethylbutanamido)-3-methoxy-5-methylheptanoyl)pyrrolidin-2-yl)-3-methoxy-2-methylpropanoyl)-L-phenylalanine 2,2,2-trifluoroacetate",62,–,–
"methyl ((2R,3R)-3-((S)-1-((3R,4S,5S)-4-((S)-2-((S)-2-((3-((((4-((S)-2-((S)-2-(6-(2,5-dioxo-2,5-dihydro-1H-pyrrol-1-yl)hexanamido)-3-methylbutanamido)-5-ureidopentanamido)benzyl)oxy)carbonyl)amino)benzyl)(methyl)amino)-3-methylbutanamido)-N,3-dimethylbutanamido)-3-methoxy-5-methylheptanoyl)pyrrolidin-2-yl)-3-methoxy-2-methylpropanoyl)-L-phenylalaninate 2,2,2-trifluoroacetate",48,–,–
